Laboratory results: PMC8068687
No constants are given. Whether binding was seen depends on the method and setting.

Experiments:
[1] = target: FhuF, ferric-siderophore reductase from E. coli K-12 (residues 18-262) (E. coli K-12) (UniProt P39405); experiment: SEC-SAXS; in-line HPLC, Shodex KW402.5-4F column, 50 uL of 8.9 mg mL^-1 SEC-purified protein injected; 20 mM potassium phosphate pH 7.6, 150 mM NaCl; both purified
[2] = target: FhuF, ferric-siderophore reductase from E. coli K-12 (residues 18-262) (E. coli K-12) (UniProt P39405); experiment: SEC; purified FhuF on a SEC column (Superdex 75 10/300 GL in the methods); apparent molar mass ca 26.9 kDa against 28 kDa expected; both purified

binding [2]: no binding
B1: FhuF, ferric-siderophore reductase from E. coli K-12 (residues 18-262) (enzyme, UniProt P39405 18-262)
chain: LQPQDPTLAQAVRATIAKHREHLLEFIRLDEPAPLNAMTLAQWSSPNVLSSLLAVYSDHIYRNQPMMIRENKPLISLWAQWYIGLMVPPLMLALLTQEKALDVSPEHFHAEFHETGRVACFWVDVCEDKNATPHSPQHRMETLISQALVPVVQALEATGEINGKLIWSNTGYLINWYLTEMKQLLGEATVESLRHALFFEKTLTNGEDNPLWRTVVLRDGLLVRRTCCQRYRLPDVQQCGDCTLK
binding [1]: no binding (tested: 8.9 mg mL^-1 injected)
